In test [1] the target is cClu-mut2-v5 (murine) (UniProt Q06890). The experiment in a line: co-IP; v5-tagged cClu (wild type or mutant) co-expressed with a 10 × myc-tagged partner in HPC7 cells; Pierce IP Lysis Buffer; antibody cross-linked to Dynabeads Protein G, lysate rotated at 4 °C overnight; immunoblots on the ProteinSimple WES.
Test [2] has as its target cClu-mut1-v5 (murine) (UniProt Q06890). The test is described as above.

Amino acid sequences for entries named in this document (tags omitted). A change or cut given only in a name is not applied to a line headed by its entry.
UniProt Q06890: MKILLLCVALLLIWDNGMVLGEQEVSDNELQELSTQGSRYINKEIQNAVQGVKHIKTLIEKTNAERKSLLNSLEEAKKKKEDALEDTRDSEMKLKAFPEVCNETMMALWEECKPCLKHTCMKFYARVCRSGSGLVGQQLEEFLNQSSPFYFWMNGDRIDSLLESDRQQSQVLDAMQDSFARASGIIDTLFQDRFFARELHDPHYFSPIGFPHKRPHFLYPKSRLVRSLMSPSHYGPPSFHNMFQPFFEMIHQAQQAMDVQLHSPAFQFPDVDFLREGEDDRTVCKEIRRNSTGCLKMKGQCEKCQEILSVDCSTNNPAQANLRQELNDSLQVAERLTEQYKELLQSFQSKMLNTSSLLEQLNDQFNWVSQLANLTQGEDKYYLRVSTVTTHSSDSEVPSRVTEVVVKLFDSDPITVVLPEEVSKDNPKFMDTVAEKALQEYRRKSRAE
UniProt Q80U63: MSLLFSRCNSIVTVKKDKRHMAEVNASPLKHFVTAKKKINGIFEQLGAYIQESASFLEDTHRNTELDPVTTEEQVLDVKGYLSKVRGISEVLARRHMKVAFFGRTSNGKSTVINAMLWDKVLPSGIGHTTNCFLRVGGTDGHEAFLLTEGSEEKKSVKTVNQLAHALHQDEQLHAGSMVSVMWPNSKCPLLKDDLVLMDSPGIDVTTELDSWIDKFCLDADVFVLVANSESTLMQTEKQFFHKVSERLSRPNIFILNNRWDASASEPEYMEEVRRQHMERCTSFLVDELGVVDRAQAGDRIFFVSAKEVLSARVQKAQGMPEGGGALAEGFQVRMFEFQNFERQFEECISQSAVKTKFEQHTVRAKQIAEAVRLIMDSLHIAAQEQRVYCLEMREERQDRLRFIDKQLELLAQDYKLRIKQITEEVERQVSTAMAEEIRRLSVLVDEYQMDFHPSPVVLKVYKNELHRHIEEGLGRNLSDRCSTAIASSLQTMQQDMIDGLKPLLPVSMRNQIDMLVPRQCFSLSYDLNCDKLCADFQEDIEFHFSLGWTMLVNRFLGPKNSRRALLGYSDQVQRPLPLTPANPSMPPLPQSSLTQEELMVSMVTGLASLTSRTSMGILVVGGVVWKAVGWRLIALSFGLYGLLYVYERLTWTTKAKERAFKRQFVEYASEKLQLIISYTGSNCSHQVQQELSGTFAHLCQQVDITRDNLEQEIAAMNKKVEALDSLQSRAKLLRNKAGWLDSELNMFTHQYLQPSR

These are yes or no findings as the source states them, for the method shown. Binding seen in cells or lysates may run through a third protein. For some assays here: Binding calls can cover weak binding; strength is not graded here.

For the substance “Mfn2-10 × myc (from UniProt Q80U63 1-757)”, the binding result in test [1] is listed as “no binding”; in test [2], “binds”.

The record behind these values is PMC12350150.
